In the supplement of paper PMC6445147:
Single values of this data set are uncertain.

B1: human tRNA-Pro; a variant is named by its letters at N, in order (parent)
chain: GGCTCGTTGGTCTAGNGGTATGATTCTCGCTTAGGGTGCGAGAGGTCCCGGGTTCNNATCCCGGACGAGCCC

Variants of: B1
Assay: tRNA 5' processing efficiency (processed reads / all reads, maximum-likelihood estimate) (fraction); higher = more efficient 5' processing
Details: HEK293T; construct: CMV Pol-II promoter ((+)CMV library, decapped)

| Variant | tRNA 5' processing efficiency |
| --- | --- |
| GGCTCGTTGGTCTAGTGGGATGATTCTCGCTTAGGGTGCGAGAGGTCCCGGGCTCAAATCCCGGACGAGCCC | 0.25 |
| GGCTCGTGGGTCTAGGGGTATGATTCTCGCTTAGGGTGCGAGAGGTCCCGGGTTCAAAGCCCGGACGAGCCC | 0.2 |
| GGCTCGTTGGTCTGCGGTTATGATTCTCGCTTAGGGTGCGAGAGGTCCCGGGGGCACATCCCGGACGAGCCC | 0.25 |
| GGCTCGTTGGTCTAGGGGTATGATTCTCGCTTAGGGTGCGAGAGGTCCCGGGTGAAAATCCCGGACGAGCCC | 0.1 |
| GGCTCGTTGGTCTAGGGGTATGATTCTCGCTTAGGGTGCGAGAGGTCCCGGGTGTAAATCCCGGACGAGCCC | 0.25 |
| GGCTCGTTGGTCTAGGGGTATGATTCTCGCTTAGGGTGCGAGAGGTCCCGGGATGAAATCCCGGACGAGCCC | 0.13 |
| GGCTCGTGGGTCTAGGGTTCTGATTCTCGCTTAGGGTGCGAGAGGTCCCGGGTTCAAACCCCGGACGAGCCC | 0.06 |
| GGCTCGTTGGTCTAGTGGCATGATTCTCGCTTAGGGTGCGAGAGGTCCCGGGATGAAATCCCGGACGAGCCC | 0.4 |
| GGCTCGTTGGTCTAGGGGTATGATTCTCGCTTAGGGTGCGAGAGGTCCCGGGGTAAAATCCCGGACGAGCCC | 0.22 |
| GGCTCGTTGGTCTGCGGTTATGATTCTCGCTTAGGGTGCGAGAGGTCCCGGGTTCACATCCCGGACGAGCCC | 0.33 |
| GGCTCGTTGGTCTAGAGGGATGATTCTCGCTTAGGGTGCGAGAGGTCCCGGGTTCAATTCCCGGACGAGCCC | 0.29 |
| GGCTCGTTGGTCTAGGGGTATGATTCTCGCTTAGGGTGCGAGAGGTCCCGGGGACAATTCCCGGACGAGCCC | 0.4 |
| GGCTCGTGGGTCTAGGTGTATGATTCTCGCTTAGGGTGCGAGAGGTCCCGGGTTCAAGTCCCGGACGAGCCC | 0.33 |
| GGCTCGTTGGTCTAGTGGGATGATTCTCGCTTAGGGTGCGAGAGGTCCCGGGTGTAAGTCCCGGACGAGCCC | 0.33 |
| GGCTCGTTGGTCTAGGGGGTTGATTCTCGCTTAGGGTGCGAGAGGTCCCGGGTACAAATCCCGGACGAGCCC | 0.33 |
| GGCTCGTTGGTCTAGTGGCATGATTCTCGCTTAGGGTGCGAGAGGTCCCGGGTTCAAATCCCGGACGAGCCC | 0.25 |
| GGCTCGTTGGTCTAGGGGTATGATTCTCGCTTAGGGTGCGAGAGGTCCCGGGGTGAACTCCCGGACGAGCCC | 0.11 |
| GGCTCGTGGGTCTAGGGCTATGATTCTCGCTTAGGGTGCGAGAGGTCCCGGGATCAAATCCCGGACGAGCCC | 0.17 |
| GGCTCGTGGGTCTAGTGGTATGATTCTCGCTTAGGGTGCGAGAGGTCCCGGGTACAATTCCCGGACGAGCCC | 0.33 |
| GGCTCGTGGGTCTAGGTGTGTGATTCTCGCTTAGGGTGCGAGAGGTCCCGGGTTCAAATCCCGGACGAGCCC | 0.2 |
| GGCTCGTGGGTCTAGGAGTATGATTCTCGCTTAGGGTGCGAGAGGTCCCGGGTACAAAGCCCGGACGAGCCC | 0.33 |
| GGCTCGTTGGTCTGGGACTATGATTCTCGCTTAGGGTGCGAGAGGTCCCGGGTTCACATCCCGGACGAGCCC | 0.33 |
| GGCTCGTTGGTCTAGGGGTATGATTCTCGCTTAGGGTGCGAGAGGTCCCGGGCTTAAATCCCGGACGAGCCC | 0.2 |
| GGCTCGTTGGTCTAGGGGTATGATTCTCGCTTAGGGTGCGAGAGGTCCCGGGCTAAAATCCCGGACGAGCCC | 0.33 |
| GGCTCGTGGGTCTAGGAGTATGATTCTCGCTTAGGGTGCGAGAGGTCCCGGGTTCAAAGCCCGGACGAGCCC | 0.33 |

| Variant | tRNA 5' processing efficiency |
| --- | --- |
| GGCTCGTTGGTCTAGGGGTATGATTCTCGCTTAGGGTGCGAGAGGTCCCGGGGTCAAAGCCCGGACGAGCCC | 0.29 |
| GGCTCGTTGGTCTAGGGGTATGATTCTCGCTTAGGGTGCGAGAGGTCCCGGGAACAAAACCCGGACGAGCCC | 0.25 |
| GGCTCGTGGGTCTAGGGGGATGATTCTCGCTTAGGGTGCGAGAGGTCCCGGGTTCAAAGCCCGGACGAGCCC | 0.25 |
| GGCTCGTGGGTCTATGGGCCTGATTCTCGCTTAGGGTGCGAGAGGTCCCGGGTTCAAACCCCGGACGAGCCC | 0.2 |
| GGCTCGTTGGTCTAGGGGTATGATTCTCGCTTAGGGTGCGAGAGGTCCCGGGGCCAAATCCCGGACGAGCCC | 0.25 |
| GGCTCGTTGGTCTAGCGGTATGATTCTCGCTTAGGGTGCGAGAGGTCCCGGGTGTAAAGCCCGGACGAGCCC | 0.14 |
| GGCTCGTTGGTCTAGGGGTATGATTCTCGCTTAGGGTGCGAGAGGTCCCGGGCACAAATCCCGGACGAGCCC | 0.2 |
| GGCTCGTGGGTCTAGGAGTATGATTCTCGCTTAGGGTGCGAGAGGTCCCGGGTTTAAATCCCGGACGAGCCC | 0.2 |
| GGCTCGTGGGTCTAGGGAGATGATTCTCGCTTAGGGTGCGAGAGGTCCCGGGTTCAAACCCCGGACGAGCCC | 0.2 |
| GGCTCGTTGGTCTAGGGGTATGATTCTCGCTTAGGGTGCGAGAGGTCCCGGGTCGAAATCCCGGACGAGCCC | 0.25 |
| GGCTCGTTGGTCTAGGGGGTTGATTCTCGCTTAGGGTGCGAGAGGTCCCGGGTTCAAATCCCGGACGAGCCC | 0.4 |
| GGCTCGTGGGTCTACGAGTATGATTCTCGCTTAGGGTGCGAGAGGTCCCGGGTTCAAATCCCGGACGAGCCC | 0.33 |
| GGCTCGTTGGTCTAGGGGGATGATTCTCGCTTAGGGTGCGAGAGGTCCCGGGTTCAACTCCCGGACGAGCCC | 0.33 |
| GGCTCGTGGGTCTAGGGGTATGATTCTCGCTTAGGGTGCGAGAGGTCCCGGGTACAATTCCCGGACGAGCCC | 0.2 |
| GGCTCGTTGGTCTAGGGGGATGATTCTCGCTTAGGGTGCGAGAGGTCCCGGGTGTAATTCCCGGACGAGCCC | 0.4 |
| GGCTCGTGGGTCTAGGCGGATGATTCTCGCTTAGGGTGCGAGAGGTCCCGGGTCCAAATCCCGGACGAGCCC | 0.25 |
| GGCTCGTTGGTCTAGAGGTATGATTCTCGCTTAGGGTGCGAGAGGTCCCGGGCGCAAACCCCGGACGAGCCC | 0.5 |
| GGCTCGTTGGTCTAGGGGTATGATTCTCGCTTAGGGTGCGAGAGGTCCCGGGTCCAAGTCCCGGACGAGCCC | 0.13 |
| GGCTCGTTGGTCTAGCGGAATGATTCTCGCTTAGGGTGCGAGAGGTCCCGGGTACAAATCCCGGACGAGCCC | 0.17 |
| GGCTCGTGTGTCTAGCGGCATGATTCTCGCTTAGGGTGCGAGAGGTCCCGGGTTGAAATCCCGGACGAGCCC | 0.25 |
| GGCTCGTGGGTCTAGGTGTATGATTCTCGCTTAGGGTGCGAGAGGTCCCGGGTTTAAATCCCGGACGAGCCC | 0.25 |
| GGCTCGTGGGTCTATAGGGTTGATTCTCGCTTAGGGTGCGAGAGGTCCCGGGTTCAAGGCCCGGACGAGCCC | 0.33 |
| GGCTCGTTGGTCTAGCGGTATGATTCTCGCTTAGGGTGCGAGAGGTCCCGGGTGCAAATCCCGGACGAGCCC | 0.25 |
| GGCTCGTTGGTCTAGCGGTATGATTCTCGCTTAGGGTGCGAGAGGTCCCGGGTCCAAATCCCGGACGAGCCC | 0.2 |
| GGCTCGTTGGTCTAGCGGAATGATTCTCGCTTAGGGTGCGAGAGGTCCCGGGTTCAATTCCCGGACGAGCCC | 0.2 |

| Variant | tRNA 5' processing efficiency |
| --- | --- |
| GGCTCGTTGGTCTAGAGGTATGATTCTCGCTTAGGGTGCGAGAGGTCCCGGGCTTAAATCCCGGACGAGCCC | 0.33 |
| GGCTCGTGGGTCTAAGCGAGTGATTCTCGCTTAGGGTGCGAGAGGTCCCGGGTTGAAGGCCCGGACGAGCCC | 0.13 |
| GGCTCGTGGGTCTAGGGTTATGATTCTCGCTTAGGGTGCGAGAGGTCCCGGGGTCAAATCCCGGACGAGCCC | 0.14 |
| GGCTCGTGGGTCTAGGGGCGTGATTCTCGCTTAGGGTGCGAGAGGTCCCGGGTTCAAACCCCGGACGAGCCC | 0.4 |
| GGCTCGTGGGTCTAGGGGTATGATTCTCACTTAGGGTGCGAGAGGTCCCGGGTTTAATTCCCGGACGAGCCC | 0.25 |
| GGCTCGTGGGTCTAGGTGTATGATTCTCGCTTAGGGTGCGAGAGGTCCCGGGTTCAAATCCCGGACGAGCCC | 0.22 |
| GGCTCGTTGGTCTAGGGGGATGATTCTCGCTTAGGGTGCGAGAGGTCCCGGGTACAAGTCCCGGACGAGCCC | 0.33 |
| GGCTCGTGGGTCTACGTTTATGATTCTCGCTTAGGGTGCGAGAGGTCCCGGGTTTAAATCCCGGACGAGCCC | 0.11 |
| GGCTCGTGGGTCTAGGGGTATGATTCTCGCTTAGGGTGCGAGAGGTCCCGGGTGGAAGCCCCGGACGAGCCC | 0.2 |
| GGCTCGTGGGTCTAGGGCTATGATTCTCGCTTAGGGTGCGAGAGGTCCCGGGTTCAAATCCCGGACGAGCCC | 0.33 |
| GGCTCGTGGGTCTAGGTGTTTGATTCTCGCTTAGGGTGCGAGAGGTCCCGGGTTAAAATCCCGGACGAGCCC | 0.13 |
| GGCTCGTTGGTCTTCGGGTATGATTCTCGCTTAGGGTGCGAGAGGTCCCGGGTTCACTTCCCGGACGAGCCC | 0.29 |
| GGCTCGTTGGTCTAGCGGGTTGATTCTCGCTTAGGGTGCGAGAGGTCCCGGGTTCAAATCCCGGACGAGCCC | 0.33 |
| GGCTCGTTGGTCTAGTGGTATGATTCTCGCTTAGGGTGCGAGAGGTCCCGGGCACAAATCCCGGACGAGCCC | 0.25 |
| GGCTCGTTGGTCTAGCGGTATGATTCTCGCTTAGGGTGCGAGAGGTCCCGGGTGGAAATCCCGGACGAGCCC | 0.25 |
| GGCTCGTTGGTCTAGGGGCATGATTCTCGCTTAGGGTGCGAGAGGTCCCGGGTTAAAATCCCGGACGAGCCC | 0.33 |
| GGCTCGTGGGTCTAGGGGTATGATTCTCGCTTAGGGTGCGAGAGGTCCCGGGGGCAAATCCCGGACGAGCCC | 0.2 |
| GGCTCGTTGGTCTAGGGGTATGATTCTCGCTTAGGGTGCGAGAGGTCCCGGGTGCAATTCCCGGACGAGCCC | 0.25 |
| GGCTCGTTGGTCTAGGGGTATGATTCTCGCTTAGGGTGCGAGAGGTCCCGGGTAAAAATCCCGGACGAGCCC | 0.5 |
| GGCTCGTTGGTCTAGCGGAGTGATTCTCGCTTAGGGTGCGAGAGGTCCCGGGTTCAAGTCCCGGACGAGCCC | 0.2 |
| GGCTCGTGGGTCTAGTGGTATGATTCTCGCTTAGGGTGCGAGAGGTCCCGGATTCAAAACCCGGACGAGCCC | 0.2 |
| GGCTCGTTGGTCTAGGGGTATGATTCTCGCTTAGGGTGCGAGAGGTCCCGGGGGCAATTCCCGGACGAGCCC | 0.5 |
| GGCTCGTTGGTCTAGGGGTCTGATTCTCGCTTAGGGTGCGAGAGGTCCCGGGTTTACATCCCGGACGAGCCC | 0.25 |
| GGCTCGTTGGTCTAGAGGTATGATTCTCGCTTAGGGTGCGAGAGGTCCCGGGAGCAAATCCCGGACGAGCCC | 0.4 |
| GGCTCGTTGGTCTAGAGGTATGATTCTCGCTTAGGGTGCGAGAGGTCCCGGGACCAAATCCCGGACGAGCCC | 0.33 |

Some of the entries above in a different format:
Variant | tRNA 5' processing efficiency
GGCTCGTTGGTCTAGAGGTATGATTCTCGCTTAGGGTGCGAGAGGTCCCGGGCTTAAATCCCGGACGAGCCC | 0.33
GGCTCGTGGGTCTAAGCGAGTGATTCTCGCTTAGGGTGCGAGAGGTCCCGGGTTGAAGGCCCGGACGAGCCC | 0.13
GGCTCGTGGGTCTAGGGGCGTGATTCTCGCTTAGGGTGCGAGAGGTCCCGGGTTCAAACCCCGGACGAGCCC | 0.4
GGCTCGTGGGTCTAGGGGTATGATTCTCACTTAGGGTGCGAGAGGTCCCGGGTTTAATTCCCGGACGAGCCC | 0.25
GGCTCGTTGGTCTAGGGGGATGATTCTCGCTTAGGGTGCGAGAGGTCCCGGGTACAAGTCCCGGACGAGCCC | 0.33
GGCTCGTGGGTCTACGTTTATGATTCTCGCTTAGGGTGCGAGAGGTCCCGGGTTTAAATCCCGGACGAGCCC | 0.11
GGCTCGTGGGTCTAGGGCTATGATTCTCGCTTAGGGTGCGAGAGGTCCCGGGTTCAAATCCCGGACGAGCCC | 0.33
GGCTCGTGGGTCTAGGTGTTTGATTCTCGCTTAGGGTGCGAGAGGTCCCGGGTTAAAATCCCGGACGAGCCC | 0.13
GGCTCGTTGGTCTTCGGGTATGATTCTCGCTTAGGGTGCGAGAGGTCCCGGGTTCACTTCCCGGACGAGCCC | 0.29
GGCTCGTTGGTCTAGCGGGTTGATTCTCGCTTAGGGTGCGAGAGGTCCCGGGTTCAAATCCCGGACGAGCCC | 0.33
GGCTCGTTGGTCTAGTGGTATGATTCTCGCTTAGGGTGCGAGAGGTCCCGGGCACAAATCCCGGACGAGCCC | 0.25
GGCTCGTTGGTCTAGGGGTATGATTCTCGCTTAGGGTGCGAGAGGTCCCGGGTGCAATTCCCGGACGAGCCC | 0.25
GGCTCGTTGGTCTAGGGGTATGATTCTCGCTTAGGGTGCGAGAGGTCCCGGGTAAAAATCCCGGACGAGCCC | 0.5
GGCTCGTTGGTCTAGCGGAGTGATTCTCGCTTAGGGTGCGAGAGGTCCCGGGTTCAAGTCCCGGACGAGCCC | 0.2
GGCTCGTGGGTCTAGTGGTATGATTCTCGCTTAGGGTGCGAGAGGTCCCGGATTCAAAACCCGGACGAGCCC | 0.2
GGCTCGTTGGTCTAGGGGTATGATTCTCGCTTAGGGTGCGAGAGGTCCCGGGGGCAATTCCCGGACGAGCCC | 0.5
GGCTCGTTGGTCTAGGGGTCTGATTCTCGCTTAGGGTGCGAGAGGTCCCGGGTTTACATCCCGGACGAGCCC | 0.25
GGCTCGTTGGTCTAGAGGTATGATTCTCGCTTAGGGTGCGAGAGGTCCCGGGAGCAAATCCCGGACGAGCCC | 0.4
GGCTCGTTGGTCTAGAGGTATGATTCTCGCTTAGGGTGCGAGAGGTCCCGGGACCAAATCCCGGACGAGCCC | 0.33
